Results published in PubChem BioAssay AID330 (DTP/NCI, 2004).
The list shows only some results of the screen, not a fair sample: it gathers tests that were run many times, whatever their T/C, doses with no T/C, and many T/C values between a quarter and a half above the control. Further doses and runs are listed elsewhere. T/C gives the treated animals as a percentage of the vehicle group. Some doses have a count of surviving animals in place of a T/C: the source holds a T/C of zero for them, seemingly a mark for toxic or unscored doses. Some survivor counts are full or nearly so, which does not show that the dose was tolerated: the source hardly ever lists a survival T/C far under the control, and the zero likely stands for such cases as well. Survivors were counted at the toxicity check, usually on the fifth day, unless a day is given; later deaths do not show. Schedule codes are those of the source, read here as Q, the interval in days (D) or hours (H), X, the number of doses. Some entries were tested several times; the results are listed from low to high. For survival time, the PubChem record calls one and a half times the control and up active, and a quarter to a half above the control has no call in these data; cut-offs in other NCI protocols can differ. Some T/C values are followed by the survivors on the day toxicity was checked, most often the fifth; without a count, all were alive then.

Test system: P388 leukemia ip, CD2F1 mice, survival T/C
Assay: NCI In Vivo Anticancer Drug Screen. Data for tumor model P388 Leukemia (intraperitoneal) in CD2F1 (CDF1) mice
Conditions: T/C endpoint: median survival time, higher T/C = longer survival
[1] = dose: 50.0 mg/kg/injection, schedule: Q01DX009 (ip), vehicle: saline
[2] = dose: 100.0 mg/kg/injection, schedule: Q01DX009 (ip), vehicle: saline with Tween-80
[3] = dose: 400.0 mg/kg/injection, schedule: Q01DX009 (ip), vehicle: saline with Tween-80
[4] = dose: 200.0 mg/kg/injection, schedule: Q01DX005 (ip), vehicle: saline with Tween-80

SMILES: COc1ccc(C2C3CCN2CC3)cc1 (centres undefined)
- survivor count (dose: 25.0 mg/kg/injection, schedule: Q01DX009 (ip), vehicle: saline): 0 of 6
- survivor count [1]: 0 of 6
- survivor count (dose: 100.0 mg/kg/injection, schedule: Q01DX009 (ip), vehicle: saline): 0 of 6
- survivor count (dose: 200.0 mg/kg/injection, schedule: Q01DX009 (ip), vehicle: saline): 0 of 6

SMILES: Nc1nc(N)c2cc(Sc3ccc4ccccc4c3)ccc2n1
- T/C [2]: 140 % of control
- survivor count [3]: 5 of 6

SMILES: CN(c1ccccc1)c1c(Cl)c(=O)oc2c1ccc1occc12
- survivor count (dose: 60.0 mg/kg/injection, schedule: Q01DX005 (ip), vehicle: saline): 6 of 6

SMILES: N=C(N)SCCC(=O)Nc1ccccc1
- survivor count (dose: 400.0 mg/kg/injection, schedule: Q04DX003 (ip), vehicle: saline with Tween-80): 0 of 6

SMILES: C[C@@H]1CC2=CC(=O)CC[C@]2(C)[C@H]2CC[C@]3(C)[C@@H](O)CC[C@H]3[C@H]12
- survivor count [3]: 6 of 6

SMILES: O=C(O)C(S)c1ccc2ccccc2c1 (centres undefined)
- survivor count (dose: 400.0 mg/kg/injection, schedule: Q01DX009 (ip), vehicle: Klucel (hydroxypropylcellulose) (HPC)): 4 of 6

SMILES: CNc1ccc(Nc2c3ccccc3nc3ccccc23)cc1
- T/C (dose: 25.0 mg/kg/injection, schedule: Q04DX002 (ip), vehicle: distilled water + Tween-80): 126 % of control
- T/C (dose: 50.0 mg/kg/injection, schedule: Q04DX002 (ip), vehicle: distilled water + Tween-80): 136 % of control
- survivor count (dose: 200.0 mg/kg/injection, schedule: Q04DX002 (ip), vehicle: distilled water + Tween-80): 0 of 6 and 2 of 6
- survivor count (dose: 400.0 mg/kg/injection, schedule: Q04DX002 (ip), vehicle: distilled water + Tween-80): 0 of 6

SMILES: O=C(N/N=C\c1c(O)ccc2ccccc12)c1ccncc1
- survivor count [4]: 6 of 6

SMILES: C[N+](C)(C)CCBr
- survivor count [1]: 0 of 6
- survivor count (dose: 50.0 mg/kg/injection, schedule: Q04DX003 (ip), vehicle: saline): 5 of 6

SMILES: COc1ccc2c(c1[N+](=O)[O-])CC[C@@H]1[C@@H]2CC[C@]2(C)C(=O)CC[C@@H]12
- survivor count (dose: 400.0 mg/kg/injection, schedule: Q01DX005 (ip), vehicle: saline with Tween-80): 6 of 6

SMILES: CC1=C(C#N)C(=O)N(C)C(=O)C1(Cl)Cl
- survivor count (dose: 400.0 mg/kg/injection, schedule: Q04DX002 (ip), vehicle: Klucel (hydroxypropylcellulose) (HPC)): 1 of 6

SMILES: CCCC(Nc1nncs1)Nc1nncs1
- T/C [4]: 131 % of control

SMILES: CCCNC(=NC)c1ccc(NC(=O)c2ccc(C(=O)Nc3ccc(C(=NC)NCCC)cc3)cc2)cc1
- T/C (dose: 8.0 mg/kg/injection, schedule: Q01DX010 (ip), vehicle: saline): 131 % of control
- T/C (dose: 12.0 mg/kg/injection, schedule: Q01DX010 (ip), vehicle: saline): 131 % of control

SMILES: Cc1ccc(N2C(c3ccccc3)=CC(=C3C=CC(=O)C=C3)C=C2c2ccccc2)cc1
- survivor count (dose: 60.0 mg/kg/injection, schedule: Q01DX005 (ip), vehicle: saline with Tween-80): 2 of 6
- survivor count (dose: 120.0 mg/kg/injection, schedule: Q01DX005 (ip), vehicle: saline with Tween-80): 0 of 6
- survivor count (dose: 240.0 mg/kg/injection, schedule: Q01DX005 (ip), vehicle: saline with Tween-80): 0 of 6

SMILES: Cc1ncc(N)c(C(=O)O)n1
- survivor count (dose: 200.0 mg/kg/injection, schedule: Q01DX005 (ip), vehicle: Klucel (hydroxypropylcellulose) (HPC)): 5 of 5

SMILES: O=C(/C=C\c1ccc(NCc2ccc(C(=O)O)cc2)cc1)CCl
- survivor count [2]: 3 of 6

SMILES: ClCC[N+]12CC[N+](CCCl)(CC1)C2.[Cl][Pt]([Cl])([Cl])[Cl]
- T/C (dose: 6.25 mg/kg/injection, schedule: Q01DX009 (ip), vehicle: distilled water + Tween-80): 131 % of control [5 of 6 alive]
- T/C (dose: 12.5 mg/kg/injection, schedule: Q01DX009 (ip), vehicle: distilled water + Tween-80): 131 and 133 % of control
- survivor count (dose: 25.0 mg/kg/injection, schedule: Q01DX009 (ip), vehicle: distilled water + Tween-80): 5 of 6
- survivor count (dose: 50.0 mg/kg/injection, schedule: Q01DX009 (ip), vehicle: distilled water + Tween-80): 0 of 6 and 1 of 6
- survivor count (dose: 100.0 mg/kg/injection, schedule: Q01DX009 (ip), vehicle: distilled water + Tween-80): 1 of 6

SMILES: CCOP(=O)(OCC)C1CCC(=O)O1 (centres undefined)
- survivor count (dose: 120.0 mg/kg/injection, schedule: Q01DX005 (ip), vehicle: saline): 0 of 6
- survivor count (dose: 240.0 mg/kg/injection, schedule: Q01DX005 (ip), vehicle: saline): 0 of 6
